Results published in paper PMC4960319.
Results are given in words; binding and its absence hold for the method and conditions named. Some results given as binding are weak or reduced against the parent protein; the word gives no strength. For some assays here: Tags and fused reporters may be left off the sequences shown.

Amino acid sequences for entries named in this document (tags omitted). A change or cut given only in a name is not applied to a line headed by its entry. Chains listed by the source or under a name are the forms on record and can include a tag or linker. Residues count along the entry.
UniProt Q7AKG9: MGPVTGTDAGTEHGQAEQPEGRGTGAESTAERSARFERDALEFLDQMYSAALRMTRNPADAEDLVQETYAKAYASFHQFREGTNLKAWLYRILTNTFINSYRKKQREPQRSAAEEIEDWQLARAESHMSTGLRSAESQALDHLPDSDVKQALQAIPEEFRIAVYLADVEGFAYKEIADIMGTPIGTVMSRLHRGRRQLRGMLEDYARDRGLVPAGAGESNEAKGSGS
σ^R (sigma factor SigR) from Streptomyces coelicolor, residues 5-227, tagless: residues 5-227 of Q7AKG9

Legend:
[1] = target: σR of the co-expressed, purified RsrAred.Zn2+-σR complex (Streptomyces coelicolor) (UniProt Q7AKG9); assay: cross-linking; 5 μM purified RsrAred.Zn2+-σR complex with 2 mM BS2G-d0/d4 or BS3-d0/d4 in 20 mM Hepes pH 7.5, 50 mM NaCl, 2 mM DTT, room temperature, 30 min; quenched with 100 mM Tris pH 7.5; SDS-PAGE bands analysed by LC-MS/MS; both purified
[2] = target: σR (residues 5-227) (Streptomyces coelicolor) (UniProt Q7AKG9); assay: ITC; with zinc (+), RsrA preincubated with 1 mM ZnCl2 and buffer exchanged; direct titration for weaker binding mutants (methods: 10 μM RsrA in the cell, 100 μM σR in the syringe); 35 °C, 50 mM Tris pH 7.5, 100 mM NaCl, 2 mM DTT; single binding site model; both purified
[3] = target: σ^R (sigma factor SigR) from Streptomyces coelicolor, residues 5-227, tagless (Streptomyces coelicolor) (UniProt Q7AKG9); assay: stopped-flow tryptophan fluorescence; association, pseudo-first-order, without zinc (apo-RsrA, EDTA-treated): σ^R 125 nM, RsrA 1.25-2.5 μM; 25 or 35 °C, 50 mM Tris pH 7.5, 100 mM NaCl, 2 mM DTT; both purified
[4] = target: σ^R (sigma factor SigR) from Streptomyces coelicolor, residues 5-227, tagless (Streptomyces coelicolor) (UniProt Q7AKG9); assay: stopped-flow tryptophan fluorescence; association, pseudo-first-order, with stoichiometric zinc: σ^R 125 nM, RsrA 1.25-2.5 μM; 25 or 35 °C, 50 mM Tris pH 7.5, 100 mM NaCl, 2 mM DTT; both purified
[5] = target: σ^R (sigma factor SigR) from Streptomyces coelicolor, residues 5-227, tagless (Streptomyces coelicolor) (UniProt Q7AKG9); assay: other fluorescence titration; intrinsic tryptophan emission of σ^R (excitation 295 nm, read at 343 nm); σ^R 1 μM, RsrA^red.Zn^2+ 0.1-2 μM; 25 °C, 50 mM Tris pH 7.5, 100 mM NaCl, 2 mM DTT; both purified
[6] = target: σ^R (sigma factor SigR) from Streptomyces coelicolor, residues 5-227, tagless (Streptomyces coelicolor) (UniProt Q7AKG9); assay: tryptophan fluorescence time course after oxidation; complex (2 μM) treated with H2O2 (1-10 mM; 10 mM for RsrA* and the cysteine mutants); dissociation followed by σ^R fluorescence (ex 295 nm, em 343 nm); 25 °C, 50 mM Tris pH 7.5, 100 mM NaCl; both purified

B1: RsrA of the co-expressed, purified RsrAred.Zn2+-σR complex (protein, UniProt Q7AKG8 1-105)
chain: MSCGEPHETDCSEILDHLYEFLDKEMPDSDCVKFEHHFEECSPCLEKYGLEQAVKKLVKRCCGQDDVPGDLRAKVMGRLDLIRSGQSVPEHDVAAAPSSSAPQES
How did the binding [1] turn out when B1 was run?
The binding was “binds”.

B2: RsrA* C44S (protein, UniProt Q7AKG8 1-105)
chain: MSAGEPHETDCSEILDHLYEFLDKEMPDSDAVKFEHHFEECSPSLEKYGLEQAVKKLVKRAAGQDDVPGDLRAKVMGRLDLIRSGQSVPEHDVAAAPSSSAPQES
For B2, which binding [2] is on record?
The binding was “no binding (tested: 10 μM in the cell, 100 μM in the syringe)”.

B3: RsrA (wild type), anti-sigma factor from Streptomyces coelicolor (protein, UniProt Q7AKG8 1-105)
chain: MSCGEPHETDCSEILDHLYEFLDKEMPDSDCVKFEHHFEECSPCLEKYGLEQAVKKLVKRCCGQDDVPGDLRAKVMGRLDLIRSGQSVPEHDVAAAPSSSAPQES
Which results are given for B3?
binding [3]: binds; binding [4]: binds; binding [5]: binds

B4: RsrA* (RsrA with Cys3, Cys31, Cys61 and Cys62 mutated to alanine) (protein, UniProt Q7AKG8 1-105)
chain: MSAGEPHETDCSEILDHLYEFLDKEMPDSDAVKFEHHFEECSPCLEKYGLEQAVKKLVKRAAGQDDVPGDLRAKVMGRLDLIRSGQSVPEHDVAAAPSSSAPQES
Which binding [6] does the source give for B4 here?
The binding was “no binding (condition: after oxidation with 10 mM H2O2)”.

B5: RsrA* Cys41His (protein, UniProt Q7AKG8 1-105)
chain: MSAGEPHETDCSEILDHLYEFLDKEMPDSDAVKFEHHFEEHSPCLEKYGLEQAVKKLVKRAAGQDDVPGDLRAKVMGRLDLIRSGQSVPEHDVAAAPSSSAPQES
Which binding [6] does the source give for B5 here?
The binding was “no binding (condition: after oxidation with 10 mM H2O2)”.

B6: RsrA* Cys44His (protein, UniProt Q7AKG8 1-105)
chain: MSAGEPHETDCSEILDHLYEFLDKEMPDSDAVKFEHHFEECSPHLEKYGLEQAVKKLVKRAAGQDDVPGDLRAKVMGRLDLIRSGQSVPEHDVAAAPSSSAPQES
B6 was tested. Which binding [6] did it give?
The binding was “no binding (condition: after oxidation with 10 mM H2O2)”.
